The text below walks through data of article PMC12505969.

Protein sequences, listed by entry. Tags and fused reporters are not part of them. Residues count along the entry.
UniProt P53476: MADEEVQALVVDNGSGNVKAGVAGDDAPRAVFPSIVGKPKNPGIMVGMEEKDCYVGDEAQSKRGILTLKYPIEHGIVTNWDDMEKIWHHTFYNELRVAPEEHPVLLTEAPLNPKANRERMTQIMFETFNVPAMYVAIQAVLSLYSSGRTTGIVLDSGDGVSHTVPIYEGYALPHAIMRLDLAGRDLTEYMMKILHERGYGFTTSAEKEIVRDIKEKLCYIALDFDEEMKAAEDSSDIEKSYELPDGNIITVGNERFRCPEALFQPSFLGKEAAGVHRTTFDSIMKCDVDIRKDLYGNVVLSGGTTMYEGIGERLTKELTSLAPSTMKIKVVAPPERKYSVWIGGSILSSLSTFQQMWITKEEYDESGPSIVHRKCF
UniProt P13404, residues 24-185: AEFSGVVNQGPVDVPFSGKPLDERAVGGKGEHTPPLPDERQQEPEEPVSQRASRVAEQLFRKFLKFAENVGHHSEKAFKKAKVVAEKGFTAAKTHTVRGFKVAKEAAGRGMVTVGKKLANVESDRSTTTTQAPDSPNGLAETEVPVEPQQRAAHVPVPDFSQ
UniProt O00933, residues 27-236: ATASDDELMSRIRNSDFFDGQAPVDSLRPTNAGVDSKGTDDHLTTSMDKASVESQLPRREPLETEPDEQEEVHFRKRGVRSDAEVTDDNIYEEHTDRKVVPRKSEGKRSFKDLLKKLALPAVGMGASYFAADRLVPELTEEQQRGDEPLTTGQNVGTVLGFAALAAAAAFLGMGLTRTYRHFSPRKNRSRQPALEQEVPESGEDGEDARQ

Assay in all cases: cross-linking; XL-MS: tachyzoite soluble cytosolic lysate (hypotonic lysis), 1 µg/µL in 1x PBS, 5 mM Azide-A-DSBSO, 2 h at room temperature; digested, DBCO-bead enrichment, LC-MS/MS; cleavable (MS Annika) and non-cleavable (pLink 3) searches; low-score hits salvaged by machine learning; re-searched against a combined human and parasite database for host-parasite pairs
Test [1] addresses Actin ACT1 (T. gondii (endogenous in ME49 tachyzoites)) (UniProt P53476).
Test [2] has as its target GRA2 (T. gondii (endogenous in ME49 tachyzoites)) (UniProt P13404).
Test [3] has as its target GRA7 (T. gondii (endogenous in ME49 tachyzoites)) (UniProt O00933).
The target in test [4] is Leucyl aminopeptidase LAP (T. gondii (endogenous in ME49 tachyzoites)) (UniProt S8GHV2).

These are yes or no findings as the source states them, for the method shown. In cells and extracts the contact can be indirect. Some results given as binding are weak or reduced against the parent protein; the word gives no strength.

Take Actin ACT1 (from UniProt P53476 1-376): in test [1], the binding entry was “binds”.

In the case of GRA2 (from UniProt P13404 24-185), in test [2], the binding entry is reported as “binds”.

On to GRA7 (from UniProt O00933 27-236), for which the binding entry in test [2] and in test [3] was “binds” each time.

B1: GRA1 (protein, UniProt P13403 25-190)
chain: AEGGDNQSSAVSDRASLFGLLSGGTGQGLGIGESVDLEMMGNTYRVERPTGNPDLLKIAIKASDGSYSEVGNVNVEEVIDTMKSMQRDEDIFLRALNKGETVEEAIEDVAQAEGLNSEQTLQLEDAVSAVASVVQDEMKVIDDVQQLEKDKQQLKDDIGFLTGERE
With B1, the binding entry in test [2] was “binds”.

B2: Leucyl aminopeptidase LAP (protein, UniProt S8GHV2 1-781)
chain: MVPPSPGASCLLSRTRQRNVLPLACSLCLYTVTVCSALRRDPTFLLNQLKIGPQFAHFSPFVETGRTSSHSGVSPSTFSGSLRSRQHAFTMRPSSFPAFLVKLPAKHKNQCRQSAAAVAGSTACWQSSLHAPACAFPFSRRNGGHPERRDAPSLSSPRSSPASFLSVLRPVTSPLPCVWKAKTPHARPLALPLPPVRTASLATFSSGSSPRRSSNHSEMSRVPAPLTVVKTDPTAIPFVGCQPAKKVRMEAVDISEAEKYSGDLIVFSVLAPGCFHDAPNASQPQKGPIALPELAQKFDDAVGQGMLKDAVEAADFKAKMGSQVFVRLPSKSAPAVKQLAALGFGSIAEVTPSAVTKAAAAFASMLLRGSGEKAKTVAVVLPTCQKVCPSAEGQRKTREMKERVVTSFLETLLVELQPDLRFKGDREDGKHSGPQVEKLTLFTDDVEAVNRAIARAKVVAPGVYFAQELVNAPANYCNPVTLARAAVEMAKEAGLEAEVLQQDDIEKLKMGCYLAVAKGSLFPPQFIHLTYKSSNPKRRVAFVGKGICFDAGGYNLKTGGAQIELMKFDMGGAAAVLGAARALGELKPENVEVHFLVAACENMISAKSYRPGDVITASNGKTVEVGNTDAEGRLTLADALVYAEKTVKADTIVDVATLTGAVIVALGYKYAGLWSNKECLASSILKSAENSGECMWHMPLAKDYAEALDSKCADMNNVGGKGKGGSIIAAVFLNKFIEQASWAHIDIAGTAWDMKTSMATGFGVRTLVEYIMDISTQTKEN
Regarding B2, the binding entry in test [4] was “binds”.
